Data as given in article PMC4366210.
These are yes or no findings as the source states them, for the method shown. Binding seen in cells or lysates may run through a third protein. Some binding calls cover weakened binding; strength is not graded here.

By UniProt entry, the sequences of proteins in these tests, tags left out. Where a name states a change or a piece, a line headed by the entry shows the natural chain unless it says otherwise. Chains listed by the source or under a name are the forms on record and can include a tag or linker.
UniProt Q86WV6: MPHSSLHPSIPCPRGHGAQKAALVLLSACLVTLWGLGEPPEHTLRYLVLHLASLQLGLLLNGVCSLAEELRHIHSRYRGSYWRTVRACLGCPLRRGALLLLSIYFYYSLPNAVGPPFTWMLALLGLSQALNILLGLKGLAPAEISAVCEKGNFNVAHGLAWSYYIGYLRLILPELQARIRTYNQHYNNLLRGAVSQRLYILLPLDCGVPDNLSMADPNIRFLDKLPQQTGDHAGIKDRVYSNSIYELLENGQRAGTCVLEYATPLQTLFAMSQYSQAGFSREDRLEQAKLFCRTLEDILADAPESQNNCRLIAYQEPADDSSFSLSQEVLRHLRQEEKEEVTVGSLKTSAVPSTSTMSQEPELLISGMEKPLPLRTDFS
STING L374A mutant, AU1-tagged (Q86WV6, form named): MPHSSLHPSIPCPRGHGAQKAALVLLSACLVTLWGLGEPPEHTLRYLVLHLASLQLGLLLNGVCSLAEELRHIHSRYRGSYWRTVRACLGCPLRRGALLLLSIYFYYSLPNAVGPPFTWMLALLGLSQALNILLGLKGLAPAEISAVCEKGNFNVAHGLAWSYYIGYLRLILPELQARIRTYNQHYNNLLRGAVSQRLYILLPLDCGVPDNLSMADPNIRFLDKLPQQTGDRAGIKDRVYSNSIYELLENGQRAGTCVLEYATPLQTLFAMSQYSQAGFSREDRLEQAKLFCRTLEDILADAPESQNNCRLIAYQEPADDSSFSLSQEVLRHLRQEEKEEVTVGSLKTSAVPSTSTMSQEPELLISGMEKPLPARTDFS
STING R284M mutant, AU1-tagged (Q86WV6, form named): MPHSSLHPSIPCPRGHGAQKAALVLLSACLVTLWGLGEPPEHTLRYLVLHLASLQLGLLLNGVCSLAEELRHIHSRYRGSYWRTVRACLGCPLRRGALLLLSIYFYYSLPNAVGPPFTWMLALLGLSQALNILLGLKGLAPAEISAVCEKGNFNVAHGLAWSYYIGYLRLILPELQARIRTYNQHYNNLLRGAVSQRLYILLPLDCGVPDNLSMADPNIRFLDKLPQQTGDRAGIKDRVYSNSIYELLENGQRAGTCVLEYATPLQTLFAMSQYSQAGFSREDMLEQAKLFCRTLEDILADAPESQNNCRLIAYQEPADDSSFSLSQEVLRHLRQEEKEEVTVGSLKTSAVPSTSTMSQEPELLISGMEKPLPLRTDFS
wild-type STING (stimulator of IFN genes), AU1-tagged, Arg 232 allele (Q86WV6, form named): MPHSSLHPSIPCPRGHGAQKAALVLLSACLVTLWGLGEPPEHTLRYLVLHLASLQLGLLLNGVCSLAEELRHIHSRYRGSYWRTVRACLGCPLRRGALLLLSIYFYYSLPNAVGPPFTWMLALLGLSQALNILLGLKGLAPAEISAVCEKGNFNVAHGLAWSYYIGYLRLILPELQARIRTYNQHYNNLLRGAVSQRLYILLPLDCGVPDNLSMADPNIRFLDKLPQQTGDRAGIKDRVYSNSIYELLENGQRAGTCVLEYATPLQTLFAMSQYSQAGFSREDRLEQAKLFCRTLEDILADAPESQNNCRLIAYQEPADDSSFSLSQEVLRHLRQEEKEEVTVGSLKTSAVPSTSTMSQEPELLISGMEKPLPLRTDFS

Legend:
Assay in all cases: co-IP; anti-AU1 immunoprecipitates from HEK293T cells transfected with AU1-tagged STING, lysed 20 hrs after transfection in CHAPS lysis buffer (40mM Hepes pH 7.4, 0.3% CHAPS); 4°C; blot for endogenous TBK1
[1] = target: STING L374A mutant, AU1-tagged (human) (UniProt Q86WV6)
[2] = target: STING R284M mutant, AU1-tagged (human) (UniProt Q86WV6)
[3] = target: wild-type STING (stimulator of IFN genes), AU1-tagged, Arg 232 allele (human) (UniProt Q86WV6)

binding [1]: no binding
binding [2]: binds
binding [3]: binds weakly
B1: TBK1 (enzyme, UniProt Q9UHD2 1-729)
chain: MQSTSNHLWLLSDILGQGATANVFRGRHKKTGDLFAIKVFNNISFLRPVDVQMREFEVLKKLNHKNIVKLFAIEEETTTRHKVLIMEFCPCGSLYTVLEEPSNAYGLPESEFLIVLRDVVGGMNHLRENGIVHRDIKPGNIMRVIGEDGQSVYKLTDFGAARELEDDEQFVSLYGTEEYLHPDMYERAVLRKDHQKKYGATVDLWSIGVTFYHAATGSLPFRPFEGPRRNKEVMYKIITGKPSGAISGVQKAENGPIDWSGDMPVSCSLSRGLQVLLTPVLANILEADQEKCWGFDQFFAETSDILHRMVIHVFSLQQMTAHKIYIHSYNTATIFHELVYKQTKIISSNQELIYEGRRLVLEPGRLAQHFPKTTEENPIFVVSREPLNTIGLIYEKISLPKVHPRYDLDGDASMAKAITGVVCYACRIASTLLLYQELMRKGIRWLIELIKDDYNETVHKKTEVVITLDFCIRNIEKTVKVYEKLMKINLEAAELGEISDIHTKLLRLSSSQGTIETSLQDIDSRLSPGGSLADAWAHQEGTHPKDRNVEKLQVLLNCMTEIYYQFKKDKAERRLAYNEEQIHKFDKQKLYYHATKAMTHFTDECVKKYEAFLNKSEEWIRKMLHLRKQLLSLTNQCFDIEEEVSKYQEYTNELQETLPQKMFTASSGIKHTMTPIYPSSNTLVEMTLGMKKLKEEMEGVVKELAENNHILERFGSLTMDGGLRNVDCL
